The assay is described as follows: qHTS Assay for Lipid Storage Modulators in Drosophila S3 Cells.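 On cell number change: cells counted by Cell Tracker Red CMTPX staining in the red channel.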 The conditions noted are these: BODIPY lipid droplet fluorescence, 18-24 h; for cell number change: measured here: cell count max response, cells fed with added oleic acid. The procedure, abridged: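 Laser-scanning cytometry quantifies lipid droplet accumulation (500–530 nm total intensity; droplet/cell object ratio) in oleic acid-fed (400 uM added) Drosophila S3 cells treated with a concentration series. 20 uM Triacsin C defined 100% inhibition.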
In general terms: Quantitative high-throughput screening tests each substance at several concentrations.

The mark [1] stands for this setting: measured here: lipid fluorescence (Fed channel) AC50, cells fed with added oleic acid.
The mark [2] stands for this setting: measured here: cell number channel AC50, cells fed with added oleic acid.

The structures appear in SMILES notation. The list shows a part of the results. Shown are side measurements of this screen, not its main read-out; they come without a call. Compounds called inactive in the main read-out are mostly missing here. Words in brackets tell the shape of the fitted curve; partial curves, single points and poor fits give uncertain potencies.

A word on the AC50: it is the concentration giving half of the maximal activity seen. Higher therefore signals weaker potency.

For the molecule `Cc1ccccc1OCC(=O)N(Cc1ccc(N(C)C)cc1)C1CCS(=O)(=O)C1` (centres undefined), the cell number change was -13.5%. Besides, the AC50 under setting [1] is 0.82 µM [rising, single point].
With `O=C1NC(=S)N(c2cccc(Cl)c2)C12CCCCC2`, the cell number change came out at 5.03%. In addition, the AC50 under setting [1] was 29.1 µM [rising, single point].
In the case of `CC(C)(C)OC(=O)NCCCCCc1cn([C@@H](CO)C(=O)NCCCCCCCCCCC(=O)N2CCN(C(=O)OC(C)(C)C)CC2)nn1`, the cell number change is -39.9%. Besides, the half-maximal activity concentration (AC50) under setting [2] is 8.2 µM [falling, full curve]. Moreover, the AC50 under setting [1] is 6.51 µM [falling, single point].
Regarding `O=C(O)c1ccc(Cl)c(S(=O)(=O)Nc2ccc3[nH]c(=O)[nH]c3c2)c1`, the cell number change was -43.2%. In addition, the AC50 under setting [2] was 4.11 µM [falling, single point].
As for `CC(=O)Nc1ccc(NC(=O)COC(=O)c2c3c(nc4ccccc24)CCN(Cc2ccccc2)C3)cc1`, the cell number change came to 12.2%. Under setting [1], the AC50 is 0.82 µM [rising, full curve, poor fit].
Regarding `CCCCc1nc2n[nH]c(N)c2c2c1CCCC2`, the cell number change came to 53.4%. Also, the AC50 under setting [2] is 7.31 µM [rising, partial curve].
As to `CCCC(=O)Nc1ccccc1-c1nnn(CC(=O)Nc2ccc(OC)cc2)n1`, the AC50 under setting [1] was 0.411 µM [rising, partial curve, poor fit].
As for `Cc1ccc(SCCC(=O)Nc2ccc(OCc3ccccc3)cc2)cc1`, the cell number change was -33.4%. The AC50 under setting [2] is 29.1 µM [falling, partial curve, poor fit]. Further, the AC50 under setting [1] is 0.00461 µM [falling, full curve, poor fit].
On to `Cc1ccc2cc(N)ccc2n1`, for which the cell number change was -1.23%. Further, the AC50 under setting [1] is 0.00461 µM [falling, full curve, poor fit].
As to `Cn1c(=O)c2[nH]c(-c3ccccc3O)nc2n(C)c1=O`, the cell number change amounted to 38.9%. Further, the AC50 under setting [2] was 29.1 µM [rising, single point]. The AC50 under setting [1] was 29.1 µM [rising, single point].
For the molecule `Cc1cc(C)cc(C(=O)NCC(=O)N2CCN(c3cccc(Cl)c3)CC2)c1`, the cell number change is -6.94%.
Same read-out and setting: under `COc1cccc(-c2noc(CCC(=O)NC3CCCCC3)n2)c1` stands 9.22%.
Regarding `CCCSc1nnc(NC(=O)c2nc(SC)ncc2Cl)s1`, the cell number change amounted to 31.9%. Under setting [2], the AC50 is 0.291 µM [rising, full curve, poor fit]. The AC50 under setting [1] is 6.51 µM [rising, single point].
Regarding `CC(=N[C@@H]1CCCC[C@H]1N=C(C)c1ccccc1O)c1ccccc1O`, the cell number change was -7.54%. The AC50 under setting [1] was 0.366 µM [falling, full curve, poor fit].
For `Cn1c(SCc2ccc([N+](=O)[O-])cc2)nnc1-c1cccnc1`, the cell number change is -15.8%.
Still for that read-out and setting: to `Cc1ccc(CCN2CC(C(=O)NCCN3CCCCCC3)CC2=O)cc1` (centres undefined) belongs 39.5%.
Turning to `CC(C(=O)N=Nc1c(O)n(C)c2ccc(Br)cc12)n1cnc2ccccc2c1=O` (centres undefined), the cell number change was found to be 7.25%. In addition, the AC50 under setting [2] was 0.411 µM [rising, partial curve, poor fit]. Besides, the AC50 under setting [1] is 0.651 µM [rising, partial curve, poor fit].
For `CCOc1ccc(Oc2ccc(NC(=O)CSc3nncn3C)cc2)cc1`, the cell number change came out at 24%.
For `O=S(=O)(NC(=NCc1ccccc1)c1ccccc1)c1ccccc1`, the cell number change is -7.89%.
As to `Cc1ccc(CN2CCCOCCS2(=O)=O)cc1`, the cell number change came to 34.1%. Further, the AC50 under setting [2] is 0.731 µM [rising, partial curve, poor fit].
As to `COc1ccc(-c2cc(C(F)F)n3ncc(C(=O)N4CCSCC4)c3n2)cc1`, the cell number change is -7.28%.
Turning to `CN(CC(=O)Nc1ccccc1Br)C(=O)CCc1ccccc1`, the cell number change was -4.76%. Further, the AC50 under setting [1] was 10.3 µM [rising, partial curve, poor fit].
For the molecule `CCOC(=O)c1c(C)[nH]c(C)c1S(=O)(=O)NCCc1ccco1`, the cell number change turned out to be 8.24%. Also, the AC50 under setting [1] was 6.51 µM [falling, single point].
As for `Cn1c(SCC(=O)NCc2ccc3c(c2)OCO3)nnc1C1COc2ccccc2O1` (centres undefined), the cell number change is -77.1%. Under setting [2], the AC50 is 13 µM [falling, partial curve]. Moreover, the AC50 under setting [1] is 10.3 µM [falling, partial curve].
With `Cc1ccc(C(=O)c2cc([N+](=O)[O-])ccc2N2CCCCC2)cc1`, the cell number change was determined as 1.59%. In addition, the AC50 under setting [1] is 1.16 µM [falling, single point].
For `COc1ccc(-c2noc(CNC(=O)Nc3ccc(F)cc3)n2)cc1`, the cell number change was 33.4%.
Regarding `Cc1ccc(CNC(=O)CN(C)S(=O)(=O)c2cccc3cccnc23)cc1`, the AC50 under setting [1] was 18.4 µM [rising, single point].
Regarding `O=C(COC(=O)c1ccc(F)cc1F)Nc1ccc(Cl)cn1`, the cell number change was -25.4%. Also, the AC50 under setting [1] is 0.13 µM [falling, full curve, poor fit].
For the molecule `Cc1ccc(OC(=O)NC2CCS(=O)(=O)C2)cc1C` (centres undefined), the cell number change is 38.3%. Under setting [2], the AC50 was 1.64 µM [rising, partial curve].
For `COc1ccc(CCNC(=O)CSc2ccc(-c3ccco3)nn2)cc1`, the cell number change is -23%. For the same molecule, the AC50 under setting [2] was 0.0366 µM [falling, full curve, poor fit].
Consider `Cc1ccc(-c2nn(-c3cccc(F)c3)cc2CNCCc2ccncc2)o1`, for which the cell number change is 9.47%. Also, the AC50 under setting [2] was 0.0651 µM [rising, full curve, poor fit]. Moreover, the AC50 under setting [1] is 0.058 µM [rising, full curve, poor fit].
In the case of `O=C(O)CCCNC1=NCCC1`, the cell number change is -1.26%. In addition, under setting [1], the AC50 is 6.51 µM [falling, single point].
Turning to `COc1ccc(-n2c(SCC(=O)c3c(N)n(C)c(=O)n(C)c3=O)nc3ccccc32)cc1`, the cell number change came out at 25.6%.
On to `O=c1cc(-c2ccc3c(c2)OCO3)oc2ccccc12`, for which the AC50 under setting [2] was 0.461 µM [rising, partial curve].
Turning to `COc1ccccc1NC(=O)C1CCC(CNc2c(N3CCCCC3)c(=O)c2=O)CC1` (centres undefined), the cell number change turned out to be 10.5%.
As to `COc1cccc(NC(=O)[C@@H]2CCCN2C(=O)C2CCN(S(=O)(=O)c3ccc(C)cc3)CC2)c1`, the cell number change was 9.09%. Also, under setting [2], the AC50 was 2.91 µM [rising, partial curve].
For the molecule `O=C(CSc1nnc(-c2ccccc2)o1)N1CCOCC1`, the AC50 under setting [2] was 0.291 µM [rising, full curve, poor fit].
Consider `O=C(CN1CCN(C(=O)c2ccco2)CC1)Nc1ccccc1-c1ccccc1`, for which the cell number change was -16.6%.
Regarding `Cc1cccc(NC(c2ccc(O)cc2)c2ccc3ccc(C)nc3c2O)n1` (centres undefined), the cell number change was -105%. Further, the AC50 under setting [2] is 29.1 µM [falling, partial curve]. For the same molecule, the AC50 under setting [1] is 20.6 µM [falling, partial curve].
For `Cc1ccc2c(c1)c1c3n2CCN(C(=O)CCl)C3CCC1` (centres undefined), the cell number change was -38.5%. The AC50 under setting [2] is 14.6 µM [falling, partial curve]. Further, the AC50 under setting [1] was 14.6 µM [falling, partial curve].
